# Test results from article doi:10.1101/2024.08.18.608516.
# Sequences of proteins named here, by UniProt entry; tags and fusion partners are left off. A change or cut given only in a name is not applied to a line headed by its entry.
# UniProt Q8IXJ9, whole entry, stated change not applied: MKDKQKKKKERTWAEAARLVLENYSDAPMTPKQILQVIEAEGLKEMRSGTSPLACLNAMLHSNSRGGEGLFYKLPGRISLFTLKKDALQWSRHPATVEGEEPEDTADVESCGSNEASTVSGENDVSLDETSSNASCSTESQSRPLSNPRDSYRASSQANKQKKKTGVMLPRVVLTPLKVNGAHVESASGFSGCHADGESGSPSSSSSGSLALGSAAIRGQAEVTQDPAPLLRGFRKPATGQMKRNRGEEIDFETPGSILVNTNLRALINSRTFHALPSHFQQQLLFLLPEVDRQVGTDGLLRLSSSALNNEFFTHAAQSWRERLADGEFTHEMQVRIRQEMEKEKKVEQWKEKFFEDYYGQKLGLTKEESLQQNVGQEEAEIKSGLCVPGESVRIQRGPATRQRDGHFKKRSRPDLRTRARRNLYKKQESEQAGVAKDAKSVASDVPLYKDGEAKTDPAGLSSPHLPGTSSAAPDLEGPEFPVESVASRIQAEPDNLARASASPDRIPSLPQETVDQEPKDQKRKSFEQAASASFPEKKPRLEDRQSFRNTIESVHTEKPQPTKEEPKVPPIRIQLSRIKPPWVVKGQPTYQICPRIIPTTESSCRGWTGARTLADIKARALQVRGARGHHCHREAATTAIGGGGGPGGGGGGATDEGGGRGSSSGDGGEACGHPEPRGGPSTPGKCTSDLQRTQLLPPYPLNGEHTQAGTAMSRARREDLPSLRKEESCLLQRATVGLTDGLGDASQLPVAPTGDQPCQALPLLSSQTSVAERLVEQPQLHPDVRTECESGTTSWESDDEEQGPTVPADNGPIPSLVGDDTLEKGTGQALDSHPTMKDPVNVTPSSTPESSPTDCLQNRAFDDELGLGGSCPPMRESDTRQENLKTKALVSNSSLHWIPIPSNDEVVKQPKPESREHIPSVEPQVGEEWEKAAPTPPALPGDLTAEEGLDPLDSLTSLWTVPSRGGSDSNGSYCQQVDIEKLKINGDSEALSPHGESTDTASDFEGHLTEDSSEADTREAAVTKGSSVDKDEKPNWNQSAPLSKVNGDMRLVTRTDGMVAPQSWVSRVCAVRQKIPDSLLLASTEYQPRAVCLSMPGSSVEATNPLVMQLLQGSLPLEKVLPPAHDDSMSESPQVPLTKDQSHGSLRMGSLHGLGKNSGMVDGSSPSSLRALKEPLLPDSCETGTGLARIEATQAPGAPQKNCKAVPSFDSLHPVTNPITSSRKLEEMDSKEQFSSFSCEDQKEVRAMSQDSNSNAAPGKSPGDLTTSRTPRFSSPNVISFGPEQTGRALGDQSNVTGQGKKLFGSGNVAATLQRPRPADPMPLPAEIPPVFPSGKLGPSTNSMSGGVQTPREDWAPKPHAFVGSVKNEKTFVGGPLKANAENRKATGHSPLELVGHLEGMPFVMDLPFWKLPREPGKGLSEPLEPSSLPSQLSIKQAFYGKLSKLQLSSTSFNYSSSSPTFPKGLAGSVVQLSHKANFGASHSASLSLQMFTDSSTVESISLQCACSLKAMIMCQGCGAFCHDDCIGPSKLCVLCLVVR
# B1: HA-Tak1 (protein, UniProt Q62073 1-579)
# chain: MSTASAASSSSSSSASEMIEAPSQVLNFEEIDYKEIEVEEVVGRGAFGVVCKAKWRAKDVAIKQIESESERKAFIVELRQLSRVNHPNIVKLYGACLNPVCLVMEYAEGGSLYNVLHGAEPLPYYTAAHAMSWCLQCSQGVAYLHSMQPKALIHRDLKPPNLLLVAGGTVLKICDFGTACDIQTHMTNNKGSAAWMAPEVFEGSNYSEKCDVFSWGIILWEVITRRKPFDEIGGPAFRIMWAVHNGTRPPLIKNLPKPIESLMTRCWSKDPSQRPSMEEIVKIMTHLMRYFPGADEPLQYPCQYSDEGQSNSATSTGSFMDIASTNTSNKSDTNMEQVPATNDTIKRLESKLLKNQAKQQSESGRLSLGASRGSSVESLPPTSEGKRMSADMSEIEARIVATAGNGQPRRRSIQDLTVTGTEPGQVSSRSSSPSVRMITTSGPTSEKPARSHPWTPDDSTDTNGSDNSIPMAYLTLDHQLQPLAPCPNSKESMAVFEQHCKMAQEYMKVQTEIALLLQRKQELVAELDQDEKDQQNTSRLVQEHKKLLDENKSLSTYYQQCKKQLEVIRSQQQKRQGTS
# B2: HA-tagged TAB2 (protein, UniProt Q9NYJ8 1-693)
# chain: MAQGSHQIDFQVLHDLRQKFPEVPEVVVSRCMLQNNNNLDACCAVLSQESTRYLYGEGDLNFSDDSGISGLRNHMTSLNLDLQSQNIYHHGREGSRMNGSRTLTHSISDGQLQGGQSNSELFQQEPQTAPAQVPQGFNVFGMSSSSGASNSAPHLGFHLGSKGTSSLSQQTPRFNPIMVTLAPNIQTGRNTPTSLHIHGVPPPVLNSPQGNSIYIRPYITTPGGTTRQTQQHSGWVSQFNPMNPQQVYQPSQPGPWTTCPASNPLSHTSSQQPNQQGHQTSHVYMPISSPTTSQPPTIHSSGSSQSSAHSQYNIQNISTGPRKNQIEIKLEPPQRNNSSKLRSSGPRTSSTSSSVNSQTLNRNQPTVYIAASPPNTDELMSRSQPKVYISANAATGDEQVMRNQPTLFISTNSGASAASRNMSGQVSMGPAFIHHHPPKSRAIGNNSATSPRVVVTQPNTKYTFKITVSPNKPPAVSPGVVSPTFELTNLLNHPDHYVETENIQHLTDPTLAHVDRISETRKLSMGSDDAAYTQALLVHQKARMERLQRELEIQKKKLDKLKSEVNEMENNLTRRRLKRSNSISQIPSLEEMQQLRSCNRQLQIDIDCLTKEIDLFQARGPHFNPSAIHNFYDNIGFVGPVPPKPKDQRSIIKTPKTQDTEDDEGAQWNCTACTFLNHPALIRCEQCEMPRHF
# Experiments:
# Assay in all cases: co-IP
# [1] = target: 3xFLAG-ASXL1-WT (wild-type ASXL1) (UniProt Q8IXJ9)
# [2] = target: 3xFLAG-ASXL1-MT (C-terminally truncated mutant ASXL1)
# [3] = target: 3xFLAG-ASXL1-CT (C-terminal side of ASXL1)
# [4] = target: 3xFLAG-ASXL1-MT (C-terminally truncated mutant ASXL1); remark: listed apart in the source
molecule,measurement,setting,value
TAK1-K63W (from UniProt Q62073),binding,[1],binds
B1,binding,[2],binds
same,binding,[3],binds
same,binding,[4],binds
B2,binding,[4],no binding

# Like-named read-outs stand apart in the source and are kept apart here. No constants are given. Whether binding was seen depends on the method and setting. In cells and extracts the contact can be indirect. Binding can be weak; no strength is given. For some assays here: Tags and fused reporters may be left off the sequences shown.
